Results are given in words; binding and its absence hold for the method and conditions named. In cells and extracts the contact can be indirect. A yes stands for co-enrichment or nearness to the bait. Other partners may have been found.
Target: AARS1-Flag (alanyl-tRNA synthetase) (human) (UniProt P49588)
Assay: affinity purification with mass spectrometry; AARS1-Flag expressed in Hutu80 cells; lysis in 0.5% NP-40 buffer; anti-FLAG M2 magnetic beads 3 h at 4 °C; on-bead tryptic digestion, LC-MS/MS (called tandem affinity purification in the results)

Sequences of proteins named here, by UniProt entry; tags and fusion partners are left off.
UniProt P49588: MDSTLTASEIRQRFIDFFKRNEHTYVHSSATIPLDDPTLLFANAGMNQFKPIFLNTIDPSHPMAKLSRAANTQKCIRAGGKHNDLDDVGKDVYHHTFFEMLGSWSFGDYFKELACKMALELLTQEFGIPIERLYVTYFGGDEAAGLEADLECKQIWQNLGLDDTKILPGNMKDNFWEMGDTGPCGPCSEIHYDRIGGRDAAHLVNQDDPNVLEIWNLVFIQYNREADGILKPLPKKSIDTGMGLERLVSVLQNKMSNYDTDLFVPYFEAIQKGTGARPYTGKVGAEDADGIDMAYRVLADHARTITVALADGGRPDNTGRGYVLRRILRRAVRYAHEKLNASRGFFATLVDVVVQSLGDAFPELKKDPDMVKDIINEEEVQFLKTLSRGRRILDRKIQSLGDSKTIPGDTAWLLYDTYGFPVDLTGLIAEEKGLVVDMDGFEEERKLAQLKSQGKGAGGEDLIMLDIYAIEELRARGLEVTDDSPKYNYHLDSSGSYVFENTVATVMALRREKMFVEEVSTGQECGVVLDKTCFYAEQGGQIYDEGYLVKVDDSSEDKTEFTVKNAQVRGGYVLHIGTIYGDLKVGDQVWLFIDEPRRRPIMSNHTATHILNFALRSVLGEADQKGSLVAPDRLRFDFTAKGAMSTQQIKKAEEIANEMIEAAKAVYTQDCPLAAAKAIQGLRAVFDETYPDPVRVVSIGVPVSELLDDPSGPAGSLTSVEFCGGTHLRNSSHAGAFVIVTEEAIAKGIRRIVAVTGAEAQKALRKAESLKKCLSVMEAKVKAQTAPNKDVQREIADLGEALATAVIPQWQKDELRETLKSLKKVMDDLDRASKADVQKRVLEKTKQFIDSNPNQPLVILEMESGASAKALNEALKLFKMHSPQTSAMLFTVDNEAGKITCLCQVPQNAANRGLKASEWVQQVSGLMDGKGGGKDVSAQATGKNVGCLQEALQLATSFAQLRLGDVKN
UniProt P09874: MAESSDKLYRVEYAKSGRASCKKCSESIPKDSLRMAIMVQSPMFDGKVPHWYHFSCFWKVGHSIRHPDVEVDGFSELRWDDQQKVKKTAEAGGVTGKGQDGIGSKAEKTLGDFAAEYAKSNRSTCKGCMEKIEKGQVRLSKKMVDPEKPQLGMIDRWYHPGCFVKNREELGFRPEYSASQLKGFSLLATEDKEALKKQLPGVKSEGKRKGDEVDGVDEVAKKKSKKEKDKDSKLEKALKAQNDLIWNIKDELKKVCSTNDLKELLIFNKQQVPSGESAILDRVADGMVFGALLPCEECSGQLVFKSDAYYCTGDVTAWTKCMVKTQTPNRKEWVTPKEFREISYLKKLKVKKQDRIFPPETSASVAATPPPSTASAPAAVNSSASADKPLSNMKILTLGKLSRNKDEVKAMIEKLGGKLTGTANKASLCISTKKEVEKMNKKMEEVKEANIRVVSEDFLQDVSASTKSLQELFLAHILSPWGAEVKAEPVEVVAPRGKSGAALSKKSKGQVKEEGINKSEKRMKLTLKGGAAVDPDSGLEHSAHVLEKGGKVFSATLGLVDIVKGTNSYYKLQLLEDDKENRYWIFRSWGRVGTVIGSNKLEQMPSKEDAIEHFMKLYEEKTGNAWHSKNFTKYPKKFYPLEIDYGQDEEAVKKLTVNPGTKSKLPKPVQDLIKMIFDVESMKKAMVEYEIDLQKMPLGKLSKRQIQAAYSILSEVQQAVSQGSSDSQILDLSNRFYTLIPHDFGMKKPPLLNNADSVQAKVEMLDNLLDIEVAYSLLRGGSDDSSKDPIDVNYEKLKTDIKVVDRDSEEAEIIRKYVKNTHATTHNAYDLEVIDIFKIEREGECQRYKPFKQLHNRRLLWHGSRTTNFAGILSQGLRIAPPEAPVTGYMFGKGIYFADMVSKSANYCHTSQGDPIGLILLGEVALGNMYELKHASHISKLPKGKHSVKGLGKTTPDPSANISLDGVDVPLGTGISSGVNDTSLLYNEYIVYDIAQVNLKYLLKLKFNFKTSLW

binding: binds
Substance: PARP1 (poly-ADP-ribose polymerase 1), endogenous in Hutu80 cells (from UniProt P09874 1-1014) (enzyme)

Source: paper PMC10060430
